Measured values from patent US20090247624A1, “FORMULATIONS OF RADIOPROTECTIVE ALPHA BETA UNSATURATED ARYL SULFONES” (Onconova Therapeutics Inc., priority 2006, published 2009).
For at least one compound, name, drawing or mass did not settle the structure.

Columns and labels:
[1] = system: HFL-1 cells; assay: Radioprotective effects on cultured normal cells (colony count); format: cell-based, human; details: 2.5 to 20 micromolar for 24 hrs before 10 Gy or 15 Gy; colonies on test plates / control plates
Description: HFL-1 cells, which are normal diploid lung fibroblasts, were plated into 24 well dishes at a cell density of 3000 cells per 10 mm^2 in DMEM completed with 10% fetal bovine serum and antibiotics. The test compounds listed in Table 11 were added to the cells 24 hours later in select concentrations from 2.5 to 20 micromolar, inclusive, using DMSO as a solvent. Control cells were treated with DMSO alone. The cells were exposed to the test compound or DMSO for 24 hrs. The cells were then irradiated with either 10 Gy (gray) or 15 Gy of ionizing radiation (IR) using a J. L. Shepherd Mark I, Model 30-1 Irradiator equipped with ^137cesium as a source.
After irradiation, the medium on the test and control cells was removed and replaced with fresh growth medium without the test compounds or DMSO. […] The number of colonies from each 100 mm^2 culture dish, which represents the number of surviving cells, was determined by staining the dishes as described below.
To visualize and count the colonies derived from the clonal outgrowth of individual radioprotected cells, the medium was removed and the plates were washed one time with room temperature phosphate buffered saline. […] The plates were air dried, the number of colonies from each plate were counted and the average from duplicate plates was determined. […]

[2] = system: C57 black mice; assay: Protection of mice from radiation toxicity by pre-treatment; format: in vivo; details: 8 Gy gamma radiation
Description: C57 black mice age 10-12 weeks (Taconic) were divided into two treatment groups of 10 mice each. One group, designated the “200×2” group, received intraperitoneal injections of 200 micrograms (E)-4-carboxystyryl-4-chlorobenzylsulfone dissolved in DMSO (a 10 mg/Kg dose, based on 20 g mice) 18 and 6 hours before irradiation with 8 Gy gamma radiation. The other group, designated “500×2,” received intraperitoneal injections of 500 micrograms (E)-4-carboxystyryl-4-chlorobenzylsulfone dissolved in DMSO (a 25 mg/Kg dose, based on 20 g mice) 18 and 6 hours before irradiation with 8 Gy gamma radiation. A control group of 16 animals received 8 Gy gamma radiation alone.

[3] = system: C57 B6/J mice; assay: Radioprotective effect in mice when given after radiation exposure; format: in vivo; details: “200 Post”: 10 mg/Kg i.p. 15 minutes after 8 Gy gamma radiation
[4] = system: mice; assay: Animal efficacy studies, lethal dose of ionizing radiation; format: in vivo; details: pre-treatment by intravenous, sub-cutaneous or intraperitoneal route

Q: For `COc1ccccc1/C=C/S(=O)(=O)Cc1ccc([N+](=O)[O-])cc1` [Compound 3, (E)-2-Methoxystyryl-4-nitrobenzylsulfone], which “Activity (radioprotection, fold protection)” value [1] is on record?
A: The value was “−”.

Q: Which “radiation toxicity in mice” value [2] does the source give for `O=C(O)c1ccc(/C=C/S(=O)(=O)Cc2ccc(Cl)cc2)cc1` [Compound 13, (E)-4-Carboxystyryl-4-chlorobenzylsulfone] here?
A: The value was “significantly reduced”.

Q: And the “mitigation of radiation toxicity after the radiation dose” value [3]?
A: The value was “effective in mitigating the effects of radiation toxicity”.

Q: What about the “radiation-induced mortality vs control animals” value [3] of the same compound?
A: The value was “significant delay in radiation-induced mortality”.

Q: For `O=C([O-])c1ccc(/C=C/S(=O)(=O)Cc2ccc(Cl)cc2)cc1.[Na+]` [ON.1210.Na, (E)-4-Carboxystyryl-4-chlorobenzylsulfone, Sodium Salt], which “protection from lethal dose of ionizing radiation” value [4] is on record?
A: The value was “protection of mice from a lethal dose of ionizing radiation”.
